Experimental data reported in article PMC10731774.
These are yes or no findings as the source states them, for the method shown. Binding seen in cells or lysates may run through a third protein. Some results given as binding are weak or reduced against the parent protein; the word gives no strength.

Protein sequences, listed by entry. Tags and fused reporters are not part of them.
UniProt Q7Z7A1: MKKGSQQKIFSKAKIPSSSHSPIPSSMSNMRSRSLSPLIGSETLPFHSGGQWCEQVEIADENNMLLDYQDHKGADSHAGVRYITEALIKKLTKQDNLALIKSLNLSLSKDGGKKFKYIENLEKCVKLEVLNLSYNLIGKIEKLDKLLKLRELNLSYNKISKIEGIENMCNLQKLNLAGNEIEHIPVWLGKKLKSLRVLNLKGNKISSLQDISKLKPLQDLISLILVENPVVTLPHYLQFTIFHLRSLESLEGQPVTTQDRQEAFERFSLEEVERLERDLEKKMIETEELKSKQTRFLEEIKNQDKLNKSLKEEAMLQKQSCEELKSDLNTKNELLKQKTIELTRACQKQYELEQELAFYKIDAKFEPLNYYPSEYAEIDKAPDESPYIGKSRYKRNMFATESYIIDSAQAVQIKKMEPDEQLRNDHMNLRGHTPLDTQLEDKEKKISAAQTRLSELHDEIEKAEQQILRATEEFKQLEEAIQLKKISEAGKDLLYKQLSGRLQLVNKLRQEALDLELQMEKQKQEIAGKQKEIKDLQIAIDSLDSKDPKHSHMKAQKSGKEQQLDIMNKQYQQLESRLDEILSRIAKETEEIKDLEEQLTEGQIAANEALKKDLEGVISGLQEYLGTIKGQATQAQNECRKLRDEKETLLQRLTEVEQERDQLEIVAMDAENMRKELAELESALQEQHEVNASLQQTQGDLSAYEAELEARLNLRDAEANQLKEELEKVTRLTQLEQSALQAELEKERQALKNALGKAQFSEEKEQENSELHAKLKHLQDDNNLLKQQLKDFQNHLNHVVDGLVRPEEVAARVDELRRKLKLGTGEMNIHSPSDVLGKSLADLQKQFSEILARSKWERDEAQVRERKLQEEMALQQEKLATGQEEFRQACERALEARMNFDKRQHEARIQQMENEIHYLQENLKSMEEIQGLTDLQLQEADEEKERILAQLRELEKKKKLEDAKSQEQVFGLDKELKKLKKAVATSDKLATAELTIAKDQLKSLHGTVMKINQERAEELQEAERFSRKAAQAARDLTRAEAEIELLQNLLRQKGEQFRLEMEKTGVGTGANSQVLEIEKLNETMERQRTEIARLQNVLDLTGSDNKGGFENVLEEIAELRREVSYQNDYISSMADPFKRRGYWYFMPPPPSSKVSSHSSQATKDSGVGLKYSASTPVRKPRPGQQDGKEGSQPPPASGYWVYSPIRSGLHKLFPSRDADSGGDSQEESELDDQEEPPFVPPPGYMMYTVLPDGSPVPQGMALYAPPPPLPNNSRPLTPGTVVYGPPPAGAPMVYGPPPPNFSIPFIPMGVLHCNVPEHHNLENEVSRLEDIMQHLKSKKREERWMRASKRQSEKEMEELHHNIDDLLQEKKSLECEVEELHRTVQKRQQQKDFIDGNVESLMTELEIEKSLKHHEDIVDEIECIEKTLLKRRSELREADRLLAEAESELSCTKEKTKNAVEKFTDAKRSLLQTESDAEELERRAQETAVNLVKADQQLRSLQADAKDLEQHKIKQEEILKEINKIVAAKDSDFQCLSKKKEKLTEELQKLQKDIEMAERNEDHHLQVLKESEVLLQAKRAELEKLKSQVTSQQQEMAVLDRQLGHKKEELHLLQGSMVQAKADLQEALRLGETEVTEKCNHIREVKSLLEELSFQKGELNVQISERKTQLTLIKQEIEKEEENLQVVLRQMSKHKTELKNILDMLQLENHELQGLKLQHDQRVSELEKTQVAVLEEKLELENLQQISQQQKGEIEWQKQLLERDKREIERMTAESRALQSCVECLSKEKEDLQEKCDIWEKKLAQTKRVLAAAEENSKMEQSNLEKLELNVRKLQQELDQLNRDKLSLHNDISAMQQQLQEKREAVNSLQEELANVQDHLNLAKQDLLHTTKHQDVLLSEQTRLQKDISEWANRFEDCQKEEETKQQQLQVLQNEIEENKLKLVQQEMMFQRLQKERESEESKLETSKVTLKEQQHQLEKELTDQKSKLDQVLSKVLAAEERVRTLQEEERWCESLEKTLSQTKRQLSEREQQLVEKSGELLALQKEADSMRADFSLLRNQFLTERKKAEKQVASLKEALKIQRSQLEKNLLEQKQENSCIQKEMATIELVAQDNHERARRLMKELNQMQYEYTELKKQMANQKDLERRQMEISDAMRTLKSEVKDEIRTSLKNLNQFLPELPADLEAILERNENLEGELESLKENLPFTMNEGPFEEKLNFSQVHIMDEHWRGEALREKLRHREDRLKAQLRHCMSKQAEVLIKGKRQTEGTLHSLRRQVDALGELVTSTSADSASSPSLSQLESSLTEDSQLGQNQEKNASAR
UniProt Q9ULT8: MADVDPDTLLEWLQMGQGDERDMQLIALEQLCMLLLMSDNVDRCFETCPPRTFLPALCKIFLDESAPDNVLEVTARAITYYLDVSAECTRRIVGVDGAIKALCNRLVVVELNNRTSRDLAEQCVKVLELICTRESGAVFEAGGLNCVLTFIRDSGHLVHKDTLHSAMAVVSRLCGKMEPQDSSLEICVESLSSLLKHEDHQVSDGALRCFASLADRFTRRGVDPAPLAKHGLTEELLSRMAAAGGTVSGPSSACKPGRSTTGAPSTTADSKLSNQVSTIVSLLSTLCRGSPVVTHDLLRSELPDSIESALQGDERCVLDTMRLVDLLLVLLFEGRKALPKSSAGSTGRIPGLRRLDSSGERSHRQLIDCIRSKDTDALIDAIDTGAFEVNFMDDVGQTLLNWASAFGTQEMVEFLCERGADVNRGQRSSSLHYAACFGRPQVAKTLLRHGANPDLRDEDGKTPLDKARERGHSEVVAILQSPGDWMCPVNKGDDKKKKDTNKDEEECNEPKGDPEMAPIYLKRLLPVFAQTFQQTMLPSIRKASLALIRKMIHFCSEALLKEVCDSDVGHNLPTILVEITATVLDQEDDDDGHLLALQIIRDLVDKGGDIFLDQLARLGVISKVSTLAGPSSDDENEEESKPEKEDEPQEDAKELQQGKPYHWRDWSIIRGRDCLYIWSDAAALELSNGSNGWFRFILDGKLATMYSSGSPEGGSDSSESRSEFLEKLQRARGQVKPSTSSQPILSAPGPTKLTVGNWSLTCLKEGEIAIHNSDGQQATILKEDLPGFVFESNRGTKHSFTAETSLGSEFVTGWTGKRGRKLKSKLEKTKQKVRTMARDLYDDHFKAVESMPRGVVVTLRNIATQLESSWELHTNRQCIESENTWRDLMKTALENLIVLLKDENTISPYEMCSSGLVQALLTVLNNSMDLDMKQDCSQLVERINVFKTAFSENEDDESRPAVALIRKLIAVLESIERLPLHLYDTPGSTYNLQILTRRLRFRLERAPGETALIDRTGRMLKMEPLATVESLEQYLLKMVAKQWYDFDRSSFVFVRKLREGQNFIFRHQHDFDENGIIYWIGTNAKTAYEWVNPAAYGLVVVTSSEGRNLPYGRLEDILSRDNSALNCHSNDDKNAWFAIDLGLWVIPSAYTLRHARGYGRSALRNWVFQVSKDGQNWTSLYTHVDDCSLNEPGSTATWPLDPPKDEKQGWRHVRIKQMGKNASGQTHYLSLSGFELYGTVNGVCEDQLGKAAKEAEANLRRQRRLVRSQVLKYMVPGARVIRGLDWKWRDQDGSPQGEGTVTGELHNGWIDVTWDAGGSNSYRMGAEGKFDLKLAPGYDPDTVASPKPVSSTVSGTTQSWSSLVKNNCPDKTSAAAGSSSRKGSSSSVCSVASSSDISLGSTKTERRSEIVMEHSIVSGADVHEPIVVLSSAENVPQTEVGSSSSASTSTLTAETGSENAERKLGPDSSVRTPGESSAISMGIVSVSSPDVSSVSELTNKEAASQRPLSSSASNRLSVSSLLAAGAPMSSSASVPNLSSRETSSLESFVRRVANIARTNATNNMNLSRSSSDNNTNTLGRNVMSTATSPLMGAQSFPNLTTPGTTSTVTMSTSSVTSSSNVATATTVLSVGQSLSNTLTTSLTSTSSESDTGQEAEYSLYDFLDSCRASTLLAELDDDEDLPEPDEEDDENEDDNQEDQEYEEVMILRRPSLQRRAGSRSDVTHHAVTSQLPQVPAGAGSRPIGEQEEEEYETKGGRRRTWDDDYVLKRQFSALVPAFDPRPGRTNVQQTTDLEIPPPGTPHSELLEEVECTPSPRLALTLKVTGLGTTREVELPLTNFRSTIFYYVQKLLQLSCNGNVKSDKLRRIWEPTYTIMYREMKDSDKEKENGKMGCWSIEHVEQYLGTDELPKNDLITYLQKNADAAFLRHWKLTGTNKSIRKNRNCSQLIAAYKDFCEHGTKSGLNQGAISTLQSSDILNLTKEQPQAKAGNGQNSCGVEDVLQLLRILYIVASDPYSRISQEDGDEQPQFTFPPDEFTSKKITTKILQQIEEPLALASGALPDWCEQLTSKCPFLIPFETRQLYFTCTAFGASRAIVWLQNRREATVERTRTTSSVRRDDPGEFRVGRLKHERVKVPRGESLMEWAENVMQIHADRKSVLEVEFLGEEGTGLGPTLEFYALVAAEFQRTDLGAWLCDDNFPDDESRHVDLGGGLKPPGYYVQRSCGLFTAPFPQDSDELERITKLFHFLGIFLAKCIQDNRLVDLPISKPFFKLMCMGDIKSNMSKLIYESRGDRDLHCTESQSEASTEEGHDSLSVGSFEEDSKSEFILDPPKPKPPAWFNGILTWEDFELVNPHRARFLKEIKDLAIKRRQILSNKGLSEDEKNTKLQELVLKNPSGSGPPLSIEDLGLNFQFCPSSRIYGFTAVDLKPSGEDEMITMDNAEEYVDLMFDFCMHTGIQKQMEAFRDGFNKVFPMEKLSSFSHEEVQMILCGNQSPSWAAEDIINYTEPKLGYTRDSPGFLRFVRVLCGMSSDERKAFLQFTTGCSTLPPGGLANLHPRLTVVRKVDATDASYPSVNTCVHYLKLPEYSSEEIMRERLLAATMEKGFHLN

Target: centriolin (endogenous, HeLa cells) (human (endogenous in HeLa)) (UniProt Q7Z7A1)
Assay: co-IP; lysates (RIPA buffer) of HeLa cells synchronized in G0, G1, S and M phase; antibodies to centriolin at 4 °C overnight, protein A/G beads 2 h; blot with HectD1 antibodies

binding: binds
Substance: HectD1 (endogenous, HeLa cells) (from UniProt Q9ULT8 1-2610)
